In assay [1] the target is Cu/Zn-superoxide dismutase from Deinococcus radiodurans (DrSOD), without the signal peptide (Deinococcus radiodurans) (UniProt Q9RYV4). Nature of the assay: SEC-MALS; 25 μM protein loaded on a gel filtration column (LW-803, SHODEX); MN buffer (50 mM MOPS, 100 mM NaCl, pH 7.0) for the holo forms, MN buffer with 5 mM EDTA for the metal-free apo state; monomer against dimer; both purified. Background: Size exclusion chromatography separates by hydrodynamic size, large species first.

Assay [2] has as its target Cu/Zn-SOD domain of DrSOD (DrSOD^SOD) (Deinococcus radiodurans) (UniProt Q9RYV4). The description is as above.

No constants are given. Whether binding was seen depends on the method and setting.

B1: Cu/Zn-superoxide dismutase from Deinococcus radiodurans (DrSOD), without the signal peptide (enzyme, UniProt Q9RYV4 24-462)
chain: ATPLSATAALRDGAGQVVGSARFVQQGAGVQVTVDVRGLTPGMHGMHVHEFGRCTPGVDPAVNKVVPFGAAGGHFDPSMSRNHDTPQTDNKHGHGGDTPMLSVGADGVGKASFTSTKISLTGENGILNRSLVIHANPDDYKTDPAGMSGARERCGVIVRDGLSVRDYALPGPVDHPEGVAYDAKKGLIYTGSAQNGTIYAINAQSGAVTKFQEGGAYGRQVALGLKVDPQGRLWIAGGAQGTVSILTPDGMTLAVLETPKSPRPYINDLVLAPDGNFYVTDSSRPVIFRVDKALKLTAWLDLAGTPIKYGPGVNLNGIAATPDGKYLLAVQLNTGELWRIDLKTKAVKKVMDGLVNGDGLLLDGRTLYVARNKDQVVAKVSLSADYGSGQLVAQEPLNGLRFPATLAKVGNDLVVTQAQLDRIGGTPETPFKLTRFAKF
In the case of B1, the binding entry in assay [1] is “no binding (tested: 25 μM)”.

B2: Cu/Zn-SOD domain of DrSOD (DrSOD^SOD) (domain or fragment, UniProt Q9RYV4 24-184)
chain: ATPLSATAALRDGAGQVVGSARFVQQGAGVQVTVDVRGLTPGMHGMHVHEFGRCTPGVDPAVNKVVPFGAAGGHFDPSMSRNHDTPQTDNKHGHGGDTPMLSVGADGVGKASFTSTKISLTGENGILNRSLVIHANPDDYKTDPAGMSGARERCGVIVRDGW
As to B2, the binding entry in assay [2] is on record as “no binding (tested: 25 μM)”.
